# Experimental data taken from article PMC9031212.
# These are yes or no findings as the source states them, for the method shown. Binding seen in cells or lysates may run through a third protein. A result given as binding can be weak or reduced; the word gives no strength.
# Target: cell cycle checkpoint kinase 2 (CHK2) (chicken (endogenous in granulosa cells))
# Test: co-IP; anti-CHK2 antibody immobilised on Protein A/G magnetic beads; supernatants of cell lysates; washed three times with RIPA lysis buffer; blots probed with anti-FoxO3a, FoxK and FoxO4
binder,measurement,value
"FoxO3a (protein, UniProt F1NNE8 1-660) MAEASPPGPLSPLDVELDPEFEPQSRPRSCTWPLQRPELQASPAKPAGEPPADAASMIPEEEDDDEEGGGAAMAVGGAAPAGGEAAAAGGPEEAARPPVPLPGGGPEGPGPAPGGAAAAAGGGGLSGGGPAAAAPRKCSSRRNAWGNLSYADLITRAIESSPEKRLTLSQIYDWMVRCVPYFKDKGDNNSSAGWKNSIRHNLSLHSRFIRVQNEGTGKSSWWMINPDGGKVGKAPRRRAVSMDNSNKYTKSRGRAAKKKAALQTAQEASEDSPSQLSKWPGSPTSRSSDELDAWTDFRSRTNSNASTISGRLSPILASTELDDVQDDDAPLSPMLYSSPSSLSPSVNKPCTVELPRLTDMAGTMNLNDGLTDNLMDDLLDNITLPSSQQSPTGGMMQRSSSFPYGSKGSGLGSPSSSFNNAVFGPSSLNSLRQSPMQTIQENKQATFSSISHYNNQTLQDLLASDALSHSDVMMTQSDPLMSQASTAVSAQNSRRNIMLRNDPMMSFAAQSSQGGLVNQSLPHHQHQSHSSPLSGSRALSNSISNIGLNDSNSLGSKHQQSPVNQSMQTLSDPLSGSSLYSSSMNLPVMGHEKFPSDLDLDIFNGSLECDMESIIRSELMDADGLDFNFDSLISAQNVVSLNVGNFTGAKQASSQSWVPG",binding,binds
